The source of these data is paper PMC6720858.

By UniProt entry, the sequences of proteins in these tests, tags left out. Where a name states a change or a piece, a line headed by the entry shows the natural chain unless it says otherwise. Chains listed by the source or under a name are the forms on record and can include a tag or linker.
AnkB p.S646F-GFP (Q01484, form named): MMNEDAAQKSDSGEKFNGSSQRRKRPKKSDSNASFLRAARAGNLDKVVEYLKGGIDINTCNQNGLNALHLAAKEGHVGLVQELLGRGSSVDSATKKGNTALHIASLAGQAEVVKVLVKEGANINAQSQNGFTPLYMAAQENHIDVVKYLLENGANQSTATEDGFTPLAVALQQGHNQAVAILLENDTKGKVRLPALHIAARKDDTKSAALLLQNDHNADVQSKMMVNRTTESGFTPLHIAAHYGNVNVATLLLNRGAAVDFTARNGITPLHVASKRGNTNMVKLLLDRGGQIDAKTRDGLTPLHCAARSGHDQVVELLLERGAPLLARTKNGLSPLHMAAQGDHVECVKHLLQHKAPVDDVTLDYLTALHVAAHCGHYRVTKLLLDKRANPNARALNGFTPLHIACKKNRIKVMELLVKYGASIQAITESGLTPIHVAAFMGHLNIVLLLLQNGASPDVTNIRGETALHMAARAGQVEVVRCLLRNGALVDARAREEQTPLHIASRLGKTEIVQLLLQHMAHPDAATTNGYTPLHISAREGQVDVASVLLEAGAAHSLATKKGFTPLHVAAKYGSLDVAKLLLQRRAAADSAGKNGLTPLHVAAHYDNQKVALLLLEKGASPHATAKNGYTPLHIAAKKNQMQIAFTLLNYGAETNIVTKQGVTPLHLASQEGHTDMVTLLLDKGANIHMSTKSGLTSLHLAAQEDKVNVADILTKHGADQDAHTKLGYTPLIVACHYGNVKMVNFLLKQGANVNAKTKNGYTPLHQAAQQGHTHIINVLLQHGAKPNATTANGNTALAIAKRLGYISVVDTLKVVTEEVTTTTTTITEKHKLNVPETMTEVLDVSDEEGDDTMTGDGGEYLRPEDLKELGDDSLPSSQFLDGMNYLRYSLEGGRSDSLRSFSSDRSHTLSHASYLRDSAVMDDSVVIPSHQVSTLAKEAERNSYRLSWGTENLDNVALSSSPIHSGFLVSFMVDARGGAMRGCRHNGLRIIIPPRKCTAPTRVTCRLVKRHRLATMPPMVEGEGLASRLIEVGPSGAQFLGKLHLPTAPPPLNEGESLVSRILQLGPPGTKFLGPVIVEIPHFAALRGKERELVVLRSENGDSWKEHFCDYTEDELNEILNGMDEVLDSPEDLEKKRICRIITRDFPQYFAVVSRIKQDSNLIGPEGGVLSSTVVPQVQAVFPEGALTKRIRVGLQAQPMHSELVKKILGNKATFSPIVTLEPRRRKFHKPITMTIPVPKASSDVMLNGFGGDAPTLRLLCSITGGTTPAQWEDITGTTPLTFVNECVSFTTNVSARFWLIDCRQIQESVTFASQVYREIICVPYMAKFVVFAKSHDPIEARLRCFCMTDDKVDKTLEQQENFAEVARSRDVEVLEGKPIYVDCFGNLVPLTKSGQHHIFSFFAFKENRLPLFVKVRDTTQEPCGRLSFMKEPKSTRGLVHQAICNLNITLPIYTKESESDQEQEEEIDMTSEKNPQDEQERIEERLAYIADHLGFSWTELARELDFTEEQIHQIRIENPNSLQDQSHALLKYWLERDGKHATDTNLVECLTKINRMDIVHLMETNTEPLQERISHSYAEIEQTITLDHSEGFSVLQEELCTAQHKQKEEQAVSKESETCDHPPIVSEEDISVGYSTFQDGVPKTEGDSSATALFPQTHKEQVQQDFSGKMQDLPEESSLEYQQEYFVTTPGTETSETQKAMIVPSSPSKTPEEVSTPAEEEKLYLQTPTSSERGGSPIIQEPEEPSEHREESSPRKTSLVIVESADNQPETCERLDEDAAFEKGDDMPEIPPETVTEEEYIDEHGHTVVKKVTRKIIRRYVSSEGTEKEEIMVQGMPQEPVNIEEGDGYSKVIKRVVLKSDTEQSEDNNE
AnkB p.E1458G-GFP (Q01484, form named): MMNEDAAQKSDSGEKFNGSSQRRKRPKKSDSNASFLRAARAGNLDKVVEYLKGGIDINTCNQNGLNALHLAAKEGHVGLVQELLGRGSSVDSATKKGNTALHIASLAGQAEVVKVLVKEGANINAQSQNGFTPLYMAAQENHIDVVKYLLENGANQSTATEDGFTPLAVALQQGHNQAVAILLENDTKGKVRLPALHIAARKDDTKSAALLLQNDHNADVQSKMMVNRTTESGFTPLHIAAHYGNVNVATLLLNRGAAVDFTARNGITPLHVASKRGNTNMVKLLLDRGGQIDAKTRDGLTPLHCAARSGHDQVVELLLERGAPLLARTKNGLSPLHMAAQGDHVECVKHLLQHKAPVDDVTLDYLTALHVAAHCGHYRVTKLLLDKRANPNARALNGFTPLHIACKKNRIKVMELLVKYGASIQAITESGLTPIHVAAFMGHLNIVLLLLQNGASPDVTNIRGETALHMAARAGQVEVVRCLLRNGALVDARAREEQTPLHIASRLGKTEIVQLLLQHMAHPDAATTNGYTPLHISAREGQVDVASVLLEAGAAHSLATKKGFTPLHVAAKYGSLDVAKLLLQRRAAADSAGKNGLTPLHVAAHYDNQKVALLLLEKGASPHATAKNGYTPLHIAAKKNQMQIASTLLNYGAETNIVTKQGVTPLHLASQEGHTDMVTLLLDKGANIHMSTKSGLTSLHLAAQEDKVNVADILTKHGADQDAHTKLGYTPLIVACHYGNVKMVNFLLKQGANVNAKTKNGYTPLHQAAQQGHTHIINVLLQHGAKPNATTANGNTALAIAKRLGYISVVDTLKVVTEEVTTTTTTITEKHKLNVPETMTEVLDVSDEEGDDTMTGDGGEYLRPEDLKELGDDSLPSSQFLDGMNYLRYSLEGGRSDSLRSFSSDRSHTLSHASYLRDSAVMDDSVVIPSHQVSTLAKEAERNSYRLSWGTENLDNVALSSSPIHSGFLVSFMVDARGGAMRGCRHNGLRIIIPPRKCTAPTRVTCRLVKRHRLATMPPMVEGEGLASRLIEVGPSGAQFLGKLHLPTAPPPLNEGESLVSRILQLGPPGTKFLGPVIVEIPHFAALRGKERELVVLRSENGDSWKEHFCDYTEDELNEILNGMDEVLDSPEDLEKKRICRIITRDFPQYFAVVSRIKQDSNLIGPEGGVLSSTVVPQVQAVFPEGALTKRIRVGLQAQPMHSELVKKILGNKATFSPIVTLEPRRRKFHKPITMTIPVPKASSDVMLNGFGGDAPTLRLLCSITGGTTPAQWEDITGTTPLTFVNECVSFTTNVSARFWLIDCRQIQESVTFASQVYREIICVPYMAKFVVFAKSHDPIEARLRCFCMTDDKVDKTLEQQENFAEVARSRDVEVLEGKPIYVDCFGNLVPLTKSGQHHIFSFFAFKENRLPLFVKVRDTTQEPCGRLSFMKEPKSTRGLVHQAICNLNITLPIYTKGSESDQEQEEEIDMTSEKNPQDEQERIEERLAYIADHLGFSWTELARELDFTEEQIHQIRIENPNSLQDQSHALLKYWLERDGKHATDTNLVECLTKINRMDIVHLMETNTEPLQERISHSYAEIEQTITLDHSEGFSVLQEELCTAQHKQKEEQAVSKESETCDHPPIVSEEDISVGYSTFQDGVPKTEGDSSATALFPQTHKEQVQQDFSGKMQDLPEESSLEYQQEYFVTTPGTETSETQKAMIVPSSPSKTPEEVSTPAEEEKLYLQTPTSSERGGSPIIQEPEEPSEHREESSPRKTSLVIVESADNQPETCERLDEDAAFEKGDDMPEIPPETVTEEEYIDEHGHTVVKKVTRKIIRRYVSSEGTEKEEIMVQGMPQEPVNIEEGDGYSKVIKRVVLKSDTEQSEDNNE
UniProt P54282: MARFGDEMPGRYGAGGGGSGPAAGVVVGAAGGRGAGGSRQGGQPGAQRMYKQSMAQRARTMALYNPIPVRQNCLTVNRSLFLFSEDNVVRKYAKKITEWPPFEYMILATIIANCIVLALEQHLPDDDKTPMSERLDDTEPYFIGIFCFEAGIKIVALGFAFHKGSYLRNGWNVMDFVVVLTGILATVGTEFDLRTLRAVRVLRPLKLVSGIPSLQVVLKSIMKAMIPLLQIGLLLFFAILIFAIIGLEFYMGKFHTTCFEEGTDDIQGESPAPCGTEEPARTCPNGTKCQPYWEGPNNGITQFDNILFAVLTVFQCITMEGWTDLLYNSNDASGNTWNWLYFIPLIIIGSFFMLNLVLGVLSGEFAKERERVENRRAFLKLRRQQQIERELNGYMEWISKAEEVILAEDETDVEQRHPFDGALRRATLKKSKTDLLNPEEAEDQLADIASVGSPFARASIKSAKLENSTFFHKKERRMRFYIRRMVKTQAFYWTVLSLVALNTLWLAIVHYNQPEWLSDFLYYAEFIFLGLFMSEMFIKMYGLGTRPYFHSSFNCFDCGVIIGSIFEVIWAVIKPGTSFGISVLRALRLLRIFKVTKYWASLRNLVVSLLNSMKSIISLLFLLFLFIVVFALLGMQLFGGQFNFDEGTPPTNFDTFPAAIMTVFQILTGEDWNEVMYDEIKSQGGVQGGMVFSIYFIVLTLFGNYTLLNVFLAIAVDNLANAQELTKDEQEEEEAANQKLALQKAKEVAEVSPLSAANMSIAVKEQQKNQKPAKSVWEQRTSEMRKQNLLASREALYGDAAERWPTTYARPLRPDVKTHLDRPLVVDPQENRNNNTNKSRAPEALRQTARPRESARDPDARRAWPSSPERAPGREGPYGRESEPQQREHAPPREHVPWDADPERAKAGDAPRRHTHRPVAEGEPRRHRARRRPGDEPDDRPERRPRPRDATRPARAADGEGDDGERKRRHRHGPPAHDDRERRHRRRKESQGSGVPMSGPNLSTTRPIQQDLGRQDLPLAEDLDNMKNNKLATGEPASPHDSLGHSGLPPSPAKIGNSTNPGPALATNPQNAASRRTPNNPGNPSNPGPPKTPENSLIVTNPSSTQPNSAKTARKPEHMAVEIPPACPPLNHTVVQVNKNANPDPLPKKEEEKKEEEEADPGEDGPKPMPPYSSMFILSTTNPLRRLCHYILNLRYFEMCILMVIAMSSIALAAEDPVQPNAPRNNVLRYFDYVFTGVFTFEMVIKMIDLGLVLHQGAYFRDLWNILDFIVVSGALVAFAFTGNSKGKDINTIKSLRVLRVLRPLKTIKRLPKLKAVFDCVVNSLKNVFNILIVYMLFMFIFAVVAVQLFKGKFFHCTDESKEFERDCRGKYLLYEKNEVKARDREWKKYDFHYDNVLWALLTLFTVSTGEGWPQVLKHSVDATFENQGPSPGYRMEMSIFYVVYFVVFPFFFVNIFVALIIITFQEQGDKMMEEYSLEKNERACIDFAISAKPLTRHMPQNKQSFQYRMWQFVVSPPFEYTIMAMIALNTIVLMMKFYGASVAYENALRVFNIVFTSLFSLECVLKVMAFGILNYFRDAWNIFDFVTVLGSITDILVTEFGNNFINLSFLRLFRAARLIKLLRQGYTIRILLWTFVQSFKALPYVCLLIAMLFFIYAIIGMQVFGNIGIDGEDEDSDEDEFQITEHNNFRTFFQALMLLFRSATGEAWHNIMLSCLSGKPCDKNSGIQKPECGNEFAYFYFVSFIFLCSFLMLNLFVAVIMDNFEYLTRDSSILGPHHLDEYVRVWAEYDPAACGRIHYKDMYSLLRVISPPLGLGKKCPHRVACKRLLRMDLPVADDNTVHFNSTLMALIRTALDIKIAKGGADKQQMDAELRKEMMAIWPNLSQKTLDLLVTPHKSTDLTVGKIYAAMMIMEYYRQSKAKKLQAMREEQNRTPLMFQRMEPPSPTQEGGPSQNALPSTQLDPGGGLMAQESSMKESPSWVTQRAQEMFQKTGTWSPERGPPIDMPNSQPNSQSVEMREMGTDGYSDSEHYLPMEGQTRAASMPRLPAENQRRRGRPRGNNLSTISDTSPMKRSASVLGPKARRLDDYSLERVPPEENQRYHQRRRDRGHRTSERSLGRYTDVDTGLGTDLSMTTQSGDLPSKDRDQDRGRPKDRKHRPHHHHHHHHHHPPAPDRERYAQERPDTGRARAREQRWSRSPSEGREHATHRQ

Results are given in words; binding and its absence hold for the method and conditions named. Binding seen in cells or lysates may run through a third protein. Some results given as binding are weak or reduced against the parent protein; the word gives no strength.

Assay [1] has as its target Ankyrin B, endogenous in P14 mouse cortex (mouse (endogenous in P14 mouse cortex)) (UniProt Q8C8R3). In words: co-IP; anti-AnkB antibody on Dynabeads (mIgG beads as control); precleared P14 mouse cortex lysate in IP buffer (150 mM NaCl, 0.32 M sucrose, 2 mM EDTA, 0.1% Triton X-100, 0.1% sodium deoxycholate, 0.1% SDS); 4 °C, 2 h; Western blot. (In general: Immunoblotting shows a protein as a band on a membrane.)

Another assay addresses AnkB p.S646F-GFP (human) (UniProt Q01484). In words: co-IP; anti-GFP antibody cross-linked to Protein G Dynabeads; lysates of HEK293T cells co-expressing Cav2.1 and wildtype or variant AnkB-GFP; 4 °C, 2 h; washed 3x in cell lysis buffer (25 mM Tris-HCl, 150 mM NaCl, 1 mM EDTA, 1% IGEPAL CA-630, 5% glycerol); Western blot.
For assay [2], the target named is AnkB p.E1458G-GFP (human) (UniProt Q01484). Described as above.
The target of another assay is AnkB p.Q879R-GFP (human) (UniProt Q01484). The description is as above.
Assay [3] deals with wildtype Ankyrin B-GFP (220 kDa AnkB isoform) (human) (UniProt Q01484). Described as above.

In the case of “Cav2.1, endogenous in P14 mouse cortex (from UniProt P97445 1-2368)”, the binding result in assay [1] is on record as “binds”.

Take “Cav2.1 (CACNA1A), pore-forming subunit of P/Q type voltage gated calcium channels, expressed from pcDNA3.1 (from UniProt P54282 1-2212)”: the binding result (in the assay with AnkB p.S646F-GFP (human); in assay [2]; with AnkB p.Q879R-GFP (human); in assay [3]) was “binds” throughout.
